Data source: PubChem BioAssay AID602196 (INSERM, 2012)
Here is a random part of about 23,000 deposited reagents. 455 of all reagents (2%) count as active. 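Active includes both protection and sensitisation; some change values fall well beyond the stated -50 to +50 range.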 Entries without a mark were called inactive. Not all columns of the deposit are shown. Not given: the amount of reagent.

Aim: 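Knock-downs that protect lung cancer cells from cisplatin or sensitise them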
Cell system: human A549 lung cancer cells
Reagents: siRNA pair against human genes
Time to read-out: 48 h transfection before cisplatin; time from cisplatin to read-out not stated
Treatment: cisplatin at a dose killing half of control-siRNA cells; exact dose and duration not given
Detection: 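Cisplatin cell death as a shift from the 50% death seen with control siRNA; siRNAs toxic or growth-blocking alone scored 0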
Direction: two-siRNA summed score (-2 to +2): higher = both siRNAs protect from cisplatin killing; -2 means both sensitise; mean protection from cisplatin (shift in death) and protection from cisplatin (shift in death), siRNA C: higher = protection from cisplatin killing
Rule for the call: 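Each siRNA scores 0 if harmful alone by LDH or WST-1, otherwise +1 if it reduces and -1 if it increases cisplatin killing; a gene is active when both siRNAs agree (sum +2 or -2)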
Meaning of the calls: active = both siRNAs shift cisplatin killing the same way; inactive = no consistent shift, or siRNA harmful alone

no.	gene	two-siRNA summed score (-2 to +2)	mean protection from cisplatin (shift in death) (%)	protection from cisplatin (shift in death), siRNA C (%)
1	LOC143497	0	10.2	30.2
2	HAUS2	0	6.7	0.6
3	LRRC36	0	8.1	3
4	LOC400410	0	1.2	-4.1
5	RPS2P6	0	25.3	15.6
6	NHLRC1	1	2.3	-7.1
7	CDC25A	-1	-7.3	6.9
8	LOC441826	0	1.8	-6.9
9	TNFAIP8	0	4.8	5.4
10	FLJ14082	0	11.9	10.4
11	OLFML3	0	-0.6	-4.3
12	CD300C	0	-4.2	-9.4
13	CPXM1	0	15.2	24.6
14	GCNT1	-1	-2.6	5.5
15	CD63	0	0.9	-3.9
16	PNLIP	0	-0.2	-11.2
17	PSME3	1	8.4	14.4
18	OR10G7	0	2.2	-3.8
19	SLC47A1	-1	-1.2	-9.8
20	RTCA	0	-6.1	-11.6
21	DNAJB5	0	12.7	14.9
22	LOC342371	1	16.9	17.4
23	TAS2R10	0	8.8	7.4
24	PGD	1	20	15.1
25	ARHGAP44	0	2.1	4.1
26	INTS6L	0	4.5	3
27	RAP2A	1	6.7	17
28	GPS2	0	3.3	27.4
29	DDIT4L	0	4	8
30	FSTL1	0	6.6	1.9
31	SF3B1	0	15.4	27.7
32	TM4SF4	0	0.2	-11
33	PACSIN2	1	13.5	18
34	USP26	0	-1.2	11.5
35	FMN1	0	9.8	9.6
36	PIP4K2B	0	-3	3.4
37	LOC285777	0	0.3	4.4
38	LOC442621	1	7.2	-3.9
39	ACY1	1	9.5	-8.9
40	BICD1	0	1.7	9.8
41	LOC375748	1	14.6	21
42	AXDND1	2 (active)	18.3	19.6
43	CTSE	0	22.1	39.3
44	LOC441491	0	-0.4	1.4
45	LSM14B	0	4.5	9
46	LOC128499	0	-3.8	-2.5
47	KCNJ1	0	-6.5	-18.9
48	TEX13B	0	2.3	-15.6
49	LOC388624	0	5	13.7
50	SLIRP-OT1	0	3.7	-3.3
51	TNRC6B	0	4	1.7
52	CSNK1A1	-1	-14	-5.2
53	LINC01010	0	2.5	3.4
54	KRTAP8-1	1	12.8	12.2
55	CEP350	0	-5.8	-10.8
56	EIF2AK4	1	4.1	12.8
57	DKFZp779O175	0	-3.7	5.3
